In US8637467B2, “Pharmaceutical being used for treating cancer and fibrosis disease and the composition and uses thereof” (Wuxi MTLH Biotechnology Co., Ltd., priority 2008, dated 2014) one finds weight data, which are given here for two compounds.

For this data set, the system named is Rat CC14 liver damage model. In words: Rat CC14 liver damage model (chronic liver fibrosis). The class given is in vivo, SD rat. On the procedure:
To evaluate the protective effect of peptide SEQ ID NO:1 on liver damage, we used chronic liver fibrosis model (rat CC14 model) for efficacy evaluation.
Rat CC14 liver damage model
(1) Control group: saline, sc, 2 ml/kg, 10 rats
(2) model group: 40% CC14, sc, 2 ml/kg, 17 rats
(3) Gan-li-xin group: 25 mg/kg, iv, 10 ml/kg, 15 rats
(4) Prevention, high dose group: 50 μg peptide SEQ ID NO:1/kg, iv, 10 ml/kg, 17 rats
(5) Prevention, low dose group: 10 μg peptide SEQ ID NO:1/kg, iv, 10 ml/kg, 17 rats
(6) Treatment, high dose group: 100 μg peptide SEQ ID NO:1/kg, iv, 10 ml/kg, 17 rats
(7) Treatment, high dose group: 20 μg peptide SEQ ID NO:1/kg, iv, 10 ml/kg, 17 rats
Except for control group, inject 40% CC14 subcutaneously twice (Tuesday, and Friday) every week in Group (2) to (6), drug volume (0.2 ml/100 g, the first time 0.5 ml/100 g). CC14 Model construction is 6 weeks. Parallel to the model construction, inject intravenously peptide SEQ ID NO:1 at 50 μg/kg and 10 μg/kg in group (4) and (5), respectively, once a day for 6 weeks. For Group (3), (6), and (7), starting from week 5, inject Gan-li-xin 25 mg/kg, peptide SEQ ID NO:1 at 100 μg/kg and 20 μg/kg, respectively, once a day, continuously for 2 weeks.
All rats were weighed once a week during model construction and drug injection. According to weight, the dose of drugs is adjusted. 24 hours after the last time of CC14 injection, liver weight parameters were examined.
Blood was extracted from femoral artery and serum was separated. The following parameters were examined: serum alanine aminotransferase (ALT), aspartate aminotransferase (AST), Bilirubin (TB), Alkaline phosphatase (ALP), total protein (TP), albumin (ALB), globulin (G), albumin/globulin ratio (A/G), glucose (GLU), total cholesterol (TCH), triglyceride (TG).
Liver homogenate: to examine cholesterol (TCH), triglyceride (TG), alanine aminotransferase (ALT), and aspartate aminotransferase (AST).
[…], dry at 110 C, examine Hydroxyproline (HPA).
Part of the liver is fixed in formalin for histology examination.

Where no end group is shown, it is not given here.

`CC1(C)[C@@H](O[C@H]2O[C@H](C(=O)O)[C@@H](O)[C@H](O)[C@H]2O[C@@H]2O[C@H](C(=O)O)[C@@H](O)[C@H](O)[C@H]2O)CC[C@]2(C)[C@H]3C(=O)C=C4[C@@H]5C[C@@](C)(C(=O)O)CC[C@]5(C)CC[C@@]4(C)[C@]3(C)CC[C@@H]12.N.N` [Gan-li-xin, Diammonium glycyrrhizinate, reference compound] registered a weight (Gan-li-xin 25 mg/kg iv, once a day for 2 weeks from week 5) of 269.2 ± 71.3 g.

For “SKVTKKYHEVLQLRPKTGVRGLHKSLTDVALEHHEECDCVCRGSTGG-OH (cysteines drawn unpaired) [Peptide SEQ ID NO:1]”, the weight is 281 ± 53.7 g (Prevention, High dose 50 μg/kg iv, once a day for 6 weeks); 276.4 ± 49.6 g (Prevention, low dose 10 μg/kg iv, once a day for 6 weeks); 246.4 ± 54.2 g (Treatment, High dose 100 μg/kg iv, once a day for 2 weeks from week 5); 289.4 ± 69.6 g (Treatment, low dose 20 μg/kg iv, once a day for 2 weeks from week 5).
